Results reported in PubChem BioAssay AID1671190 (National Center for Advancing Translational Sciences (NCATS), 2021).
Several values for one entry are separate records, joined by “and”; a condition that tells them apart may be missing. Identical values can stand only once. The campaign covered roughly 580,000 compounds. About 6,100 (1.1%) were called active. The shares of active, inactive and inconclusive entries below differ from those in the screen. Calls follow the shape of the dose curve; as a rule, active = well fitted inhibition curve with a large enough effect; inconclusive = small, poorly fitted or top-dose-only effect, or another doubt; inactive = no such curve, though single readings can be large or run the other way. Potencies beside an inconclusive call are fits to weak or partial responses and may not hold up.

By UniProt entry, the sequences of proteins in these tests, tags left out. Where a name states a change or a piece, a line headed by the entry shows the natural chain unless it says otherwise.
UniProt P18054: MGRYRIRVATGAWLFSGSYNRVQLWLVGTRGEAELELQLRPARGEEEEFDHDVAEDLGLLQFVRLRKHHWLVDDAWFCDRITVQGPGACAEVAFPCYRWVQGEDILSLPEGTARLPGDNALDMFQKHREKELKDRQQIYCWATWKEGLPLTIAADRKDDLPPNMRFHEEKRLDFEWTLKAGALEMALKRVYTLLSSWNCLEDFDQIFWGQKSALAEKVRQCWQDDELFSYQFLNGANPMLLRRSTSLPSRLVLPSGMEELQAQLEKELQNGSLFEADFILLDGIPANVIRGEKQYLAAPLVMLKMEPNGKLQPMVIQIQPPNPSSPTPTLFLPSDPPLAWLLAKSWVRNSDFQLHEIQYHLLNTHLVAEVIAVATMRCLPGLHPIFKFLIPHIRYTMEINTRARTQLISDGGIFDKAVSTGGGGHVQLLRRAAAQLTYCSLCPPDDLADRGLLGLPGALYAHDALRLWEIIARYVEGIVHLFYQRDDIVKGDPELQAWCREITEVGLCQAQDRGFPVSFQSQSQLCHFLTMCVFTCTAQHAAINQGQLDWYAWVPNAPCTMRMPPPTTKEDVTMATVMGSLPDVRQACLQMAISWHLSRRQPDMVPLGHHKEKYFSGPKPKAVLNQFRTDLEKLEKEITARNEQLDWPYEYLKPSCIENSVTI

Each compound was assayed against Polyunsaturated fatty acid lipoxygenase ALOX12 (Homo sapiens) (UniProt P18054) (assay: Primary qHTS assay for inhibitors of human arachidonate 12S-lipoxygenase (ALOX12): Round 2). Conditions: purified 12hLO, xylenol orange hydroperoxide absorbance; activity change, negative = inhibition: at 108 µM (top of the series) unless noted.
Procedure, shortened: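 Purified human 12hLO at 150 nM in 25 mM Hepes, 0.01% Triton X-100, pH 7.0, preincubated 15 min at room temperature with compound. Reaction started with 40 uM arachidonic acid, 30 min at room temperature. Hydroperoxide measured by Fe-xylenol orange, 573/405 nm absorbance ratio.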
% is scaled to controls: 0 for no effect and ±100 for the full control effect; potency is read from the fitted curve at half-maximal effect.

SMILES | activity change, negative = inhibition | Potency
Cc1cccc2[nH]c3c(N4CCC5(CC4)OCCO5)ncnc3c12 | inactive: -4.69% | 
CCC(C)NC(=O)c1sc2nc(C)c(C(=O)Nc3ccc(Cl)cc3)c(-c3ccc(Br)cc3)c2c1N (configuration not stated) |  | inconclusive: 112 µM [inhibitor, partial curve, poor fit]
COc1ccc(CC(=O)NC(C)c2nnc(SCC(=O)c3ccc(Cl)cc3Cl)n2C)cc1 (configuration not stated) | inactive: -25% | 
COc1ccc(C2CC(c3ccccc3)=NN2C(=O)CSc2ncn[nH]2)cc1 (configuration not stated) | inactive: 21% | 
Cn1cccc1-c1cc(C(=O)N/N=C/c2cccc(O)c2)[nH]n1 | inactive: 0.293% | 
C=C(C)c1cccc(C(C)(C)NC(=O)NCC2COCCO2)c1 (configuration not stated) |  | inconclusive: 0.0891 µM [inhibitor, full curve, poor fit]
Cc1ccc(-c2cccc(CN3CCCC(c4nc5ccc(F)cc5c(=O)[nH]4)C3)c2)c(C)c1 (configuration not stated) |  | inconclusive: 56.2 µM [inhibitor, partial curve] and inconclusive: 35.5 µM [inhibitor, partial curve, poor fit]
C=C(Br)CNC1CCCCC1 |  | inconclusive: 44.7 µM [inhibitor, partial curve, poor fit]
CC(C)CN(C(=O)COC(=O)CCC(=O)c1ccc(Cl)cc1)c1c(N)n(Cc2ccccc2)c(=O)[nH]c1=O |  | inconclusive: 112 µM [inhibitor, single point]
CC(=O)Nc1ccc(C(=O)NNC(=O)CCCCC(=O)NNC(=O)c2ccc(NC(C)=O)cc2)cc1 |  | inconclusive: 100 µM [inhibitor, partial curve, poor fit]
Cn1nc(C2CCCN(C(=O)C3CCCC3)C2)n(Cc2ccccc2)c1=O (configuration not stated) | inactive: 14.5% | 
S=C(Nc1ccc(Cl)cc1)N1CCN(C2CCCCC2)CC1 |  | inconclusive: 79.4 µM [inhibitor, partial curve, poor fit]
COc1ccccc1/C=C1\Cc2ccccc2C1=O | inactive: 167% | 
O=C(c1cc(F)ccc1F)N1CCC2(CC1)N=C(c1ccc(Cl)cc1)NO2 |  | inconclusive: 79.4 µM [inhibitor, single point]
COc1ccc(-c2nonc2NC(=O)c2ccc(OCC(C)C)cc2)cc1OC | inactive: 0.643% | 
N/C(=N\OC(=O)c1cc(Cl)ccc1Cl)c1ccncc1 |  | inconclusive: 79.4 µM [inhibitor, single point]
Cc1ccc(NC2CCCN(C(=O)C3CCCCC3)C2)cc1C (configuration not stated) | inactive: -11.1% | 
O=[N+]([O-])c1ccc(-c2cn3nc(-c4ccccc4)c(-c4ccccc4)nc3n2)cc1 |  | inconclusive: 79.4 µM [inhibitor, single point]
COc1ccc(CNC(=O)CC2CCN(C(=O)c3ccc4nc(-c5ccc(C)cc5)oc4c3)CC2)cc1 |  | inconclusive: 44.7 µM [inhibitor, partial curve, poor fit]
Cn1c(C(=O)NCc2cccc(F)c2)cc2cc(S(=O)(=O)N3CCCCC3)ccc21 | inactive: -19.3% | 
Cc1ccc(Nc2n[nH]c(=S)s2)cc1C |  | inconclusive: 3.16 µM [inhibitor, full curve, poor fit]
COc1ccccc1OCC(=O)Nc1ccc(N2CCOCC2)cc1N1CCOCC1 |  | inconclusive: 112 µM [inhibitor, single point]
CN(C)c1ccc(CN2CCC3(COc4ccccc4C(=O)N3)C2)cc1 (configuration not stated) | inactive: 20.2% | 

SMILES | activity change, negative = inhibition | Potency
CSc1ccccc1NC(=O)CN(C)Cc1c(O)ccc2ccccc12 |  | active: 5.01 µM
Cn1cccc1C(=O)N1CCC2(CCCN(c3ncccn3)C2)CC1 | inactive: -14.8% [at 57.4 µM] | 
O=C1C(c2ccccc2)CN1Cc1ccccc1 (configuration not stated) |  | inconclusive: 112 µM [inhibitor, single point]
CCCn1c(-c2ccc(OC)cc2)nc2nc3ccccc3nc21 | inactive: 9.85% | 
Cc1ccccc1C(=O)N1CCC[C@H]1C(=O)N1CCC[C@H]1C(=O)NCc1ccccn1 |  | inconclusive: 158 µM [inhibitor, single point]
Cn1c(=O)c2[nH]c(-c3ccc(S(=O)(=O)O)cc3)nc2n(C)c1=O |  | inconclusive: 35.5 µM [inhibitor, partial curve, poor fit]
Cc1ccc(-c2nc(C(Cl)Cl)c3ccccc3n2)cc1 | inactive: 0.717% | 
O=C1NC[C@H](CCCCN2C[C@H](Cc3ccccc3)N(Cc3ccccc3)C(=O)C2=O)N(CCc2ccc(O)cc2)C1=O |  | inconclusive: 89.1 µM [inhibitor, single point]
Cc1ccc(N2CC(c3noc(-c4ccsc4)n3)CC2=O)cc1 (configuration not stated) |  | inconclusive: 44.7 µM [inhibitor, partial curve, poor fit]
O=C(O)c1cccc(Cn2c(Cl)c(/C=N/NC(=O)c3ccccc3Cl)sc2=O)c1 | inactive: 490% | 
O=C(CN(Cc1ccc2c(c1)OCO2)C(=O)CNC(=O)c1ccco1)NC1CCCCC1 |  | inconclusive: 100 µM [inhibitor, partial curve, poor fit]
CC(c1ccc(S(N)(=O)=O)cc1)N(C)C(=O)CCc1ncc(-c2ccc(Cl)cc2)o1 (configuration not stated) | inactive: -1.85% | 
O=C(Cn1cc(S(=O)(=O)Cc2ccc(F)cc2)c2ccccc21)NCc1ccccc1 |  | inconclusive: 89.1 µM [inhibitor, partial curve, poor fit]
O=C(N/N=C/c1ccccc1OCc1ccccc1Cl)c1cccnc1 | inactive: 23.5% | 
CCOc1ccc(-c2cc(C(F)(F)F)c(C#N)c(SCC(=O)Nc3ccccc3)n2)cc1 | inactive: 3.55% | 
Cc1ccsc1/C=N/NC(=O)c1ccc([N+](=O)[O-])cc1 | inactive: 8.59% | 
CC[C@@]1(C(=O)OC)N[C@H](CN(C)C(=O)Nc2ccc(OC)cc2)[C@@H]2C(=O)N(C)C(=O)[C@@H]21 |  | inconclusive: 7.08 µM [inhibitor, partial curve, poor fit]
CCCCn1c(N)c(N(C)C(=O)c2cccc(-n3cnnn3)c2)c(=O)[nH]c1=O |  | inconclusive: 89.1 µM [inhibitor, single point]
CC(C)c1ccc(NC(=O)c2cc([N+](=O)[O-])ccc2N2CCOCC2)cc1 |  | inconclusive: 50.1 µM [inhibitor, partial curve, poor fit]
COc1ccc(S(=O)(=O)NC(=O)C2(C)CCN2C(=O)c2c(C)noc2C)cc1 (configuration not stated) |  | inconclusive: 56.2 µM [inhibitor, partial curve]
Cc1cc(C)c(NC(=O)c2ccc3ccccc3n2)c(C)c1 | inactive: -19.7% | 
CN(C)c1ccc(C(CNC(=O)Cc2cccc3ccccc23)N(C)C)cc1 (configuration not stated) | inactive: 17.7% | 
COc1ccccc1-n1cc(C(=O)c2cc(C)ccc2O)cc(C#N)c1=O | inactive: -21.2% | 

SMILES | activity change, negative = inhibition | Potency
O=C(NC(=S)Nc1ncccn1)c1ccccc1Br |  | inconclusive: 3.55 µM [inhibitor, full curve, poor fit]
CCOCCCNC(c1ccccc1)c1ccncc1 (configuration not stated) |  | inconclusive: 28.2 µM [inhibitor, partial curve, poor fit]
CCc1cccc(C)c1NC(=O)c1cnn(-c2ccc(F)cc2)c1-n1cccc1 |  | inconclusive: 79.4 µM [inhibitor, partial curve, poor fit]
O=C(CN1CCCCC1)N1CCCc2ccccc21 |  | inconclusive: 1.26 µM [inhibitor, full curve, poor fit]
Cc1cc(C)n(-c2ccc(C(=O)O)cc2[N+](=O)[O-])n1 |  | inconclusive: 89.1 µM [inhibitor, partial curve, poor fit]
CSc1nn(Cc2cccc(F)c2)c(N(C(C)=O)C(C)=O)c1S(=O)(=O)c1ccccc1 | inactive: -19% | 
CC(Sc1ccccc1)C(=O)OCc1nc(N)nc(Nc2ccc(Cl)cc2)n1 (configuration not stated) |  | inconclusive: 158 µM [inhibitor, single point]
O=c1c(-c2ccc(F)c(F)c2)nc2cncnc2n1Cc1ccccc1Cl |  | inconclusive: 31.6 µM [inhibitor, partial curve, poor fit]
CCCNc1c(NC(=O)Nc2ccc(Cl)cc2)c(=O)oc2ccccc12 |  | inconclusive: 39.8 µM [inhibitor, partial curve, poor fit]
FC(F)(F)c1cc(CO[C@H]2CCCN[C@H]2c2ccccc2)cc(C(F)(F)F)c1 | inactive: 6.86% | 
CC1=C(C)/C(=N\OS(=O)(=O)c2ccc(C)cc2)C=CC1=O |  | inconclusive: 63.1 µM [inhibitor, partial curve, poor fit]
CCOC(=O)c1sc(N)c(C(=O)Nc2ccccc2OC)c1C |  | inconclusive: 44.7 µM [inhibitor, partial curve]
COc1ccc(NC2c3ccccc3C(=O)N2c2cccnc2)cc1Cl (configuration not stated) |  | inconclusive: 44.7 µM [inhibitor, partial curve, poor fit]
CC(=O)Nc1cccc(C(C)NC(=O)Nc2ccc(Cl)cc2Cl)c1 (configuration not stated) |  | inconclusive: 39.8 µM [inhibitor, partial curve, poor fit]
CCNC(=O)C1CCc2ncc(-c3ccsc3)n2C1 (configuration not stated) | inactive: 25.2% | 
CCS(=O)(=O)c1ncc(N(Cc2ccccc2)Cc2ccco2)c(C(=O)Nc2ccccc2)n1 |  | inconclusive: 5.01 µM [inhibitor, full curve, poor fit]
OC(c1ccccc1)(c1ccccc1)C1CCN(CCCOc2cccc(Cl)c2)CC1 |  | inconclusive: 79.4 µM [inhibitor, single point]
COc1cccc(C(O)c2nc(-c3ccc(Cl)cc3)cs2)c1 (configuration not stated) |  | inconclusive: 35.5 µM [inhibitor, partial curve, poor fit]
O=C(C1CCCC1)N1CCN(S(=O)(=O)c2ccc(Cl)cc2)CC1 |  | inconclusive: 158 µM [inhibitor, partial curve, poor fit]
O=c1c(Cc2c(F)cccc2Cl)c(O)ccn1Cc1ccc2c(c1)OCO2 | inactive: -0.438% | 
